Reference: patent US6156727A, “Anti-atherosclerotic peptides and a transgenic mouse model of antherosclerosis” (UAB Research Foundation, priority 1997, dated 2000)
Several values for one entry are separate records, joined by “and”; a condition that tells them apart may be missing. Identical values can stand only once. Not every detail of the peptide structures is certain; ends, links or a residue may be inferred. No end group written: not given here.

Test system: diet administered atherosclerosis in peptide transgenic mice
Assay: In vitro fertilized peptide-transgenic mice on high fat diet for 16 weeks (plasma peptide, cholesterol, aortic cross-section)
Format: in vivo
Details: 1 being minimal and 4 being extensive lesions; peptide-positive transgenic animals, individual animals; listed as SEQ ID No. 3
Source text: The peptide gene was then cloned into the MunI site of the apoE-promoter that is specific for expression of the peptide/protein in the liver. SalI-Spel fragment of the apoE promoter to which the peptide gene was subcloned was microinjected into mouse oocytes to produce transgenic mice. […] Further transgenic mice were generated from these two founders and analysed for the presence of peptide gene.
This produced a number of animals with the peptide gene present in different amounts. Western analysis using the antibody produced for the chemically synthesized peptide indicated the presence of peptide in different amounts (FIG. 4).
The animals were then administered TeckLad diet that is known to produce foam cell lesions in 57BL6/J mice when administered for sixteen weeks. At the end of sixteenth week, mice were sacrificed, plasma was collected and the hearts were harvested. The aortal cross-sections were stained with Oil Red O that stains lipid laden fatty streaks. The plasma samples were subjected to lipoprotein analysis. The results of plasma analysis indicated clearly that the profiles were different from each other and some of the profiles looked very similar to the control mice on the normal diet, with the cholesterol values around ≤100 mg/dl.
Blood from the in vitro fertilized animals were obtained from the retroorbital bleed and red cells were separated by centrifugation. […]

DEPDWLKAFYDKVAEKLKEAFPDWLKAFYDKVAEKLKEAF [Asp-Glu-Pro-18A-Pro-18A]
Aortic lesion score: 2 and 1
